# Patent publication US20220177485A1, “CAMPTOTHECIN DERIVATIVE, PREPARATION METHOD THEREFOR AND APPLICATION THEREOF” (MARINE BIOMEDICAL RESEARCH INSTITUTE OF QINGDAO CO., LTD., priority 2018, published 2022)
# Some results were stated once for a whole list of compounds, not compound by compound.
# Tested on: NCI-H1975 cells (non-small cell lung adenocarcinoma cancer cell)
# Test: growth inhibition of tumor cells in vitro, NCI-H1975
# Type: cell-based
# Conditions: Table 2: NCI-H1975, MDA-MB-231 and HCT-116 cell lines
# From the text: We tested compounds target a variety of tumor cell for the growth inhibition to show its antitumor activity by using the method of the field technicians known. Chooses the tumor cell lines include: A549 cell non-small cell lung cancer cell line (people), K562 cells (human chronic myeloid leukemia cells), NCI-H1975 cells (non-small cell lung adenocarcinoma cancer cell), MDA-MB-231 cells (human breast cancer cells) and HCT-116 cells (human colon cancer cells).
row,Compound,activities of proliferation compared to topotecan
1,"CC[C@@]1(O)C(=O)OCc2c1cc1n(c2=O)Cc2c-1nc1cc3c(cc1c2-c1ccoc1)OCO3 [Compound 23, 20(S)-7-(furan-3-yl)-10,11-methylenedioxy-camptothecin]",better activities of proliferation than the drug topotecan
2,"CC[C@@]1(O)C(=O)OCc2c1cc1n(c2=O)Cc2c-1nc1cc3c(cc1c2-c1ccsc1)OCO3 [Compound 24, 20(S)-7-(thiophene-3-yl)-10,11-methylenedioxy-camptothecin]",better activities of proliferation than the drug topotecan
3,"CC[C@@]1(O)C(=O)OCc2c1cc1n(c2=O)Cc2c-1nc1cc3c(cc1c2-c1cnn(C)c1)OCO3 [Compound 25, 20(S)-7-(1-methyl-1H-pyrazol-4-yl)-10,11-methylenedioxy-camptothecin]",better activities of proliferation than the drug topotecan
